Values of other authors, collected in patent US11932845B2, “Microorganisms and methods for production of 4-hydroxybutyrate, 1,4-butanediol and related compounds” (priority 2012, dated 2024).
Where two headings read alike, the source gives them in different places.

Test system: NADH dehydrogenases and cytochrome oxidase
Settings: aerobic growth, cited from earlier work

B1: NDH-2 (protein, UniProt P00393 2-434, looked up)
Type II NADH:quinone …: TTPLKKIVIVGGGAGGLEMATQLGHKLGRKKKAKITLVDRNHSHLWKPLLHEVATGSLDEGVDALSYLAHARNHGFQFQLGSVIDIDREAKTITIAELRDEKGELLVPERKIAYDTLVMALGSTSNDFNTPGVKENCIFLDNPHQARRFHQEMLNLFLKYSANLGANGKVNIAIVGGGATGVELSAELHNAVKQLHSYGYKGLTNEALNVTLVEAGERILPALPPRISAAAHNELTKLGVRVLTQTMVTSADEGGLHTKDGEYIEADLMVWAAGIKAPDFLKDIGGLETNRINQLVVEPTLQTTRDPDIYAIGDCASCPRPEGGFVPPRAQAAHQMATCAMNNILAQMNGKPLKNYQYKDHGSLVSLSNFSTVGSLMGNLTRGSMMIEGRIARFVYISLYRMHQIALHGYFKTGLMMLVGSINRVIRPRLKLH
**Q.** Which results are given for B1?
**A.** Concentration (Limited glucose (early stationary)): 0.70 ± 0.03 μmol/s/mg of protein; Concentration (Standard glucose (early stationary: 8 h)): 0.88 ± 0.01 μmol/s/mg of protein; Concentration (Standard glucose (exponential: 3 h)): 1.11 ± 0.06 μmol/s/mg of protein; Concentration (Standard glucose (exponential: 5 h)): 0.86 ± 0.03 μmol/s/mg of protein
